# Experimental data published in patent publication US11407979B2, “Intermittent starvation techniques to prolong functional lifetime of liver cells in culture” (Colorado State University Research Foundation, priority 2017, dated 2022).
# Test system: primary human hepatocytes in micropatterned co-cultures (MPCCs)
smiles,measurement,value
CCCCc1oc2ccccc2c1C(=O)c1cc(I)c(OCCN(CC)CC)c(I)c1 [amiodarone],"TC50 values for albumin production, non-starved cells compared with starved cells",similar
same,"TC50 values for urea production, non-starved cells compared with starved cells",similar
